# Part of at least one peptide drawing is inferred or uncertain, most often the ends. Some entries repeat one wording, which the source may state once for all of them. No end group written: not given here.
# Amino acid sequences for entries named in this document (tags omitted). Residues count along the entry.
# UniProt P08709, 61-212 limits assumed: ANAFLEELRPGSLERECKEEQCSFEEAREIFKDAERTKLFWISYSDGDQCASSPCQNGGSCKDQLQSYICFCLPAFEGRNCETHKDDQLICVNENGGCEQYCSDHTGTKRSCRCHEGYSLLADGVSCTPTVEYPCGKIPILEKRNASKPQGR
# UniProt P08709, 213-466 limits assumed: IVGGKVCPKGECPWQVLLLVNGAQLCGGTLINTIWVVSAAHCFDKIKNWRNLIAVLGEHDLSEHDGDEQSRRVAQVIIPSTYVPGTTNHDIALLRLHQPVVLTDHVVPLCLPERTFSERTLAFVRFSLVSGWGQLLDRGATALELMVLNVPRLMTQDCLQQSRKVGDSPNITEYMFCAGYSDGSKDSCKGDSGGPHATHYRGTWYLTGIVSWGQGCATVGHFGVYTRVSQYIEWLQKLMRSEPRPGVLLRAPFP
# UniProt P13726, 33-295: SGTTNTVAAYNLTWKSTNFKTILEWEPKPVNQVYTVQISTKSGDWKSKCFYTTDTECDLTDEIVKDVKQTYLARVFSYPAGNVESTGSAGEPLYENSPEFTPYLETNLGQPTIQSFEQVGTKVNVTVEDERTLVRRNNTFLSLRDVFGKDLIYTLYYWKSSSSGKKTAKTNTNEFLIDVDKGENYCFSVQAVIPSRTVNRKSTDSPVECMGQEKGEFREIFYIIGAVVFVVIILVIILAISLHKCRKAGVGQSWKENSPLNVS
# Biological target: T1, TF:VIIa complex (Homo sapiens, UniProt P08709+P13726)
# T1 construct: human Factor VIIIa (133 pM); purchased Instrumentation Laboratory (TF reagent PT-Fibrinogen Recombinant)
# Assay: Two stage chromogenic substrate assay for TF:VIIa mediated activation of Factor X
# Format: biochemical
# Details: 2-stage chromogenic substrate assay
row,Sequence,Inhibitory activity on TF:VIIa mediated activation of factor X
1,DKFSEFWD [CR004],no inhibitory activity
2,FSEFWDLDPEVRPTSAVAA [CR003],no inhibitory activity
3,GWVTDGFSSLKDYWSTVKDK [CR002],much lower potency than the apolipoprotein CIII fragment
4,PEVRPTSAVAA [CR005],no inhibitory activity
5,SLKDYWSTVKDKFS [CR006],Progressive loss of potency

# Source: patent US7456148B2, “Method of producing an anticoagulation effect” (Healthlinx Limited, priority 2003, dated 2008)
